The supplement of paper PMC10849652
This is one part of the list.

By UniProt entry, the sequences of proteins in these tests, tags left out. Where a name states a change or a piece, a line headed by the entry shows the natural chain unless it says otherwise.
UniProt O94766: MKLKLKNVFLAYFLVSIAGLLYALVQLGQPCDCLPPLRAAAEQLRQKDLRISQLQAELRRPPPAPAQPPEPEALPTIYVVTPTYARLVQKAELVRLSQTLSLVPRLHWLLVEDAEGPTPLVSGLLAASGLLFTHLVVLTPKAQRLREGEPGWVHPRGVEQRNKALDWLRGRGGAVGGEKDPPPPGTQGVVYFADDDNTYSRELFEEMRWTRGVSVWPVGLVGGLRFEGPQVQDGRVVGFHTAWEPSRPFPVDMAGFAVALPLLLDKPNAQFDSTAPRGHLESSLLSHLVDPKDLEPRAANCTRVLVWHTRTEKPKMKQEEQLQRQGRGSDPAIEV
UniProt P30049: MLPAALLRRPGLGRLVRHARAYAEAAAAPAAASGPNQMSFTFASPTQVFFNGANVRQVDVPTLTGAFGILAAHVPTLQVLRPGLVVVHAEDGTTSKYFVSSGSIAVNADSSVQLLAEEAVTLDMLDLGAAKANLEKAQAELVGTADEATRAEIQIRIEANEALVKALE
UniProt O00244: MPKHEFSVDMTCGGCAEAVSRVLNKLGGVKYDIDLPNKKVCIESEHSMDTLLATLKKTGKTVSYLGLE
UniProt Q9UBL3, whole entry, looked up: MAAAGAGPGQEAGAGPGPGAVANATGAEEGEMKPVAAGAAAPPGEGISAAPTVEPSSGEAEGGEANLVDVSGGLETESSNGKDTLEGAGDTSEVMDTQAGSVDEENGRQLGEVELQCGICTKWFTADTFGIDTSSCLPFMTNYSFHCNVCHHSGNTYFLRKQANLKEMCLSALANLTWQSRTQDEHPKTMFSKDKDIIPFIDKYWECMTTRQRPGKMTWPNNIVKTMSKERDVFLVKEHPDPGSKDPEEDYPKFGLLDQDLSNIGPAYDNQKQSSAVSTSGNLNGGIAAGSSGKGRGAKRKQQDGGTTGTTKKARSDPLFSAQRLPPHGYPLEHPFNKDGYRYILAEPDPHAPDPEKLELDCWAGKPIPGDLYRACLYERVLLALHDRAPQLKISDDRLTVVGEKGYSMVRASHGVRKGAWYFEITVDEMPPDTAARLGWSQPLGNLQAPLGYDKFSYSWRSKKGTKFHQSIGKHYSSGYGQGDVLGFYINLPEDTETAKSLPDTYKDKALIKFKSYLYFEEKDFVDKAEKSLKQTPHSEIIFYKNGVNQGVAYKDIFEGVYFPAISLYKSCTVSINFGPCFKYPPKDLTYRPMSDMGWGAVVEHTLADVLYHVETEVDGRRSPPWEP
UniProt P98196: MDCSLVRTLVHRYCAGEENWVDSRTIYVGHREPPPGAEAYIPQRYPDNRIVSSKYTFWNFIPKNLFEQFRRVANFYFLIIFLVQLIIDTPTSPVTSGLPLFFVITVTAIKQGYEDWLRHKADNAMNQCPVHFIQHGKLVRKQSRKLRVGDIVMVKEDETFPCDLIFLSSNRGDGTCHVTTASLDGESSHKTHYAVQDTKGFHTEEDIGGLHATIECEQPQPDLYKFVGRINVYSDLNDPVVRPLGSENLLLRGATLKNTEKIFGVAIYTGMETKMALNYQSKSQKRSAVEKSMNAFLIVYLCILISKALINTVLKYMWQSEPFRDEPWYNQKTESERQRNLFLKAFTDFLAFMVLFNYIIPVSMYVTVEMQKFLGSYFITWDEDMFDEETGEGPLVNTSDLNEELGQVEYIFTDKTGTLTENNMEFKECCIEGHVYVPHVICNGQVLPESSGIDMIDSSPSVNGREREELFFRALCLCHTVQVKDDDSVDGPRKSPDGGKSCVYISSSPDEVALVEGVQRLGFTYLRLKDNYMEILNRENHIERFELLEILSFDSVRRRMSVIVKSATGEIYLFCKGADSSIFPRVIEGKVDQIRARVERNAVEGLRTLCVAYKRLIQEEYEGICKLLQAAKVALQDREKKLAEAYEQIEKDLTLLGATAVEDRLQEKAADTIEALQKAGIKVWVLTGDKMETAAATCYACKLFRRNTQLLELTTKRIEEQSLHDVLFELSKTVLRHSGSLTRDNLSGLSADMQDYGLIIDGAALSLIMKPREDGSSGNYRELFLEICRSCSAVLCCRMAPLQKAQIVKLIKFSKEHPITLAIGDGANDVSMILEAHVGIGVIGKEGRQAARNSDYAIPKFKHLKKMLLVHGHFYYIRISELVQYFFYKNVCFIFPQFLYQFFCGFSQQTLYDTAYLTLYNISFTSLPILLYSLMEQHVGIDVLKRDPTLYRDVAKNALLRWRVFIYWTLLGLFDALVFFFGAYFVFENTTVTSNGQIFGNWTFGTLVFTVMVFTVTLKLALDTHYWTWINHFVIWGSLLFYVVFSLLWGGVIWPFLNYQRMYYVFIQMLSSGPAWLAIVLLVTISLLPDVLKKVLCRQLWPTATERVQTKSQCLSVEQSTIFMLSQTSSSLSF
UniProt Q96IX5: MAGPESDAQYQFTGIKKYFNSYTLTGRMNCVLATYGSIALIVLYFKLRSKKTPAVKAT
UniProt Q6Y288: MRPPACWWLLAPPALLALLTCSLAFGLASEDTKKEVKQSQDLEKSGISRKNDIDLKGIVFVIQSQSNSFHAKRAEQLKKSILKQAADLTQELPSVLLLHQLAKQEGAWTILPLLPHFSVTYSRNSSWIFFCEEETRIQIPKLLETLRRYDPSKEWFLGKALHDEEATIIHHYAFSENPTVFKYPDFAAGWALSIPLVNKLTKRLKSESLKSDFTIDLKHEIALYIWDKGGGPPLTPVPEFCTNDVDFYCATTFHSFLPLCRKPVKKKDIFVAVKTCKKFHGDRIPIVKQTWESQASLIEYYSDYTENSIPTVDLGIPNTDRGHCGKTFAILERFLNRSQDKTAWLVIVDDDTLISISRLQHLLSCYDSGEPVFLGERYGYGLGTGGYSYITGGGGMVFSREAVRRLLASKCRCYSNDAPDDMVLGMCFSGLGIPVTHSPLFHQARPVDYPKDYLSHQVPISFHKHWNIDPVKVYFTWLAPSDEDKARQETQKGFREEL
UniProt Q9NT62, whole entry, looked up: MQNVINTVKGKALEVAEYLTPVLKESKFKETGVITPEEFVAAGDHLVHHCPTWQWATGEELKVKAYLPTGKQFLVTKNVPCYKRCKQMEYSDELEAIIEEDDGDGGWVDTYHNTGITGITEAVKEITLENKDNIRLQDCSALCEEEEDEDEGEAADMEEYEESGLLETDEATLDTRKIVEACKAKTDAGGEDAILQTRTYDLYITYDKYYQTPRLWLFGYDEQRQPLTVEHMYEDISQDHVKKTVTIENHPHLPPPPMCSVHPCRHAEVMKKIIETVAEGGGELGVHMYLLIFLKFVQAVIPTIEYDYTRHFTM
UniProt Q13733, whole entry, looked up: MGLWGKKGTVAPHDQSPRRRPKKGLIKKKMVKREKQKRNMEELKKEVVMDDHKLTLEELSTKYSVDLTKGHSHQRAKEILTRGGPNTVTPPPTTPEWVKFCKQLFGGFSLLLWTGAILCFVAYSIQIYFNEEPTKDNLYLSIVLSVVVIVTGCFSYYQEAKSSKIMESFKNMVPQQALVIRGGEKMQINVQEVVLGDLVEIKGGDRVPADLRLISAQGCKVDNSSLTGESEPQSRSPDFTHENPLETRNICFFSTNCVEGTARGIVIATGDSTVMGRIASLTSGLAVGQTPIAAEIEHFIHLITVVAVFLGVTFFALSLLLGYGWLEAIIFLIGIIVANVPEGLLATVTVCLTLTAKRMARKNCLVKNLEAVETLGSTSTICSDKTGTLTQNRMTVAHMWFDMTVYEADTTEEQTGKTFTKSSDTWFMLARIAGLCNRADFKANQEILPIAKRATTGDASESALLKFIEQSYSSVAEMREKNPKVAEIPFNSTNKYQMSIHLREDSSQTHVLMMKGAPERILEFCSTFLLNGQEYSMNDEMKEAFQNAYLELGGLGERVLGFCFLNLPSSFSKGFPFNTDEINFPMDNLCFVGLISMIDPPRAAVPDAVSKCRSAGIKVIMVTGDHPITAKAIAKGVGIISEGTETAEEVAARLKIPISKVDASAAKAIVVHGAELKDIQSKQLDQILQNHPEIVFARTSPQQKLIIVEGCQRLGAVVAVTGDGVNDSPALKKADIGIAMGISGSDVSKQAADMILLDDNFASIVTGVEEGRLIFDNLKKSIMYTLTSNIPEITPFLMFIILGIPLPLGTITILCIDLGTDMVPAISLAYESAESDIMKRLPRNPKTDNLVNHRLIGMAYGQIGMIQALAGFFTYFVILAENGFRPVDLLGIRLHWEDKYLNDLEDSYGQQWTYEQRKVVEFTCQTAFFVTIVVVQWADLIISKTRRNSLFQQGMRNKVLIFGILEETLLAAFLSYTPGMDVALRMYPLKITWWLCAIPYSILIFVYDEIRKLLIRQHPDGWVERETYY
UniProt P15313, whole entry, looked up: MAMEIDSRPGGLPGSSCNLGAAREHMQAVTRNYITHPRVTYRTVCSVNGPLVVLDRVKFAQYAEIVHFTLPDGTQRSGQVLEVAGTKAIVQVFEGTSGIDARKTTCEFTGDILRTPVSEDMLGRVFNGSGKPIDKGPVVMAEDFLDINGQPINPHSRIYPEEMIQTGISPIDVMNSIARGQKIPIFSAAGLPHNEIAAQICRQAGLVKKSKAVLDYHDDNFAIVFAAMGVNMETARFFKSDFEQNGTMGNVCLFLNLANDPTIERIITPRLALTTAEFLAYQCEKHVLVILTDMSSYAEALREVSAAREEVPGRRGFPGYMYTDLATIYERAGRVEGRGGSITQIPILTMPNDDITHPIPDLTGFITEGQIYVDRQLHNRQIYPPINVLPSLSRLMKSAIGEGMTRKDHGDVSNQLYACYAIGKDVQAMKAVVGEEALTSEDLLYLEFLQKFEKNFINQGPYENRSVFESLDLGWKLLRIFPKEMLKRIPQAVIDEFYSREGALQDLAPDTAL
UniProt P20020: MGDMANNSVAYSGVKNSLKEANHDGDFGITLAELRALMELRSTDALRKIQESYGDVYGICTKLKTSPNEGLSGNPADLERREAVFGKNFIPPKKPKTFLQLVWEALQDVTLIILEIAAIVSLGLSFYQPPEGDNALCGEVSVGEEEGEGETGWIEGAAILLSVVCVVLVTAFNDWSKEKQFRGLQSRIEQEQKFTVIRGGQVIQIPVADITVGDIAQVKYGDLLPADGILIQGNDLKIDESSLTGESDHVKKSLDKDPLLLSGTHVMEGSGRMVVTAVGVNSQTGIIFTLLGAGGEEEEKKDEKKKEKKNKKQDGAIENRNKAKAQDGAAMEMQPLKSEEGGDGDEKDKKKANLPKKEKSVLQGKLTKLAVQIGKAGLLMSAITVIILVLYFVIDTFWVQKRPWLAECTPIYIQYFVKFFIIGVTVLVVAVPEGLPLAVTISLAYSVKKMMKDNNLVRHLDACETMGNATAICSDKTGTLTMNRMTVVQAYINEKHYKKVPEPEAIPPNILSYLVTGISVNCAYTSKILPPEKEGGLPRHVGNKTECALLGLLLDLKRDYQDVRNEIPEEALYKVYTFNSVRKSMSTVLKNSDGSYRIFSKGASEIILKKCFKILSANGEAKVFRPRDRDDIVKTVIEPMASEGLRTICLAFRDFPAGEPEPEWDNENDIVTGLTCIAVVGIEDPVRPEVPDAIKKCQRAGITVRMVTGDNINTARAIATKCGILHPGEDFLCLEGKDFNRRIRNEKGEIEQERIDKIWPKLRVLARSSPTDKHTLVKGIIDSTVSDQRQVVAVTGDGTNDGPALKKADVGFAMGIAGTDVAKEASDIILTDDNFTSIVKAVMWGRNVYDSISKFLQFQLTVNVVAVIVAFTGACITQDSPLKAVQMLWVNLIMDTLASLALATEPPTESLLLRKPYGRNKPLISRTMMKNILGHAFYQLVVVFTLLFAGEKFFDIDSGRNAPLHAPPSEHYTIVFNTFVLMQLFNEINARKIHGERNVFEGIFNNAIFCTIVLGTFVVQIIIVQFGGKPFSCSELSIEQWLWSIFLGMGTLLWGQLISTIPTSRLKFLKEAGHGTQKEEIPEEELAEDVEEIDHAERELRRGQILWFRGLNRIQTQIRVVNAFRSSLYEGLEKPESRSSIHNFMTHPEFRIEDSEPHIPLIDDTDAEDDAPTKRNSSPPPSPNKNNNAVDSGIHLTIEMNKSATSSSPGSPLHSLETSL
UniProt Q16864, whole entry, looked up: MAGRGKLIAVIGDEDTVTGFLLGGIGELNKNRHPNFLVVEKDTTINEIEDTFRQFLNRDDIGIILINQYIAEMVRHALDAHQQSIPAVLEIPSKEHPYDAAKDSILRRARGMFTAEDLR
UniProt P56381: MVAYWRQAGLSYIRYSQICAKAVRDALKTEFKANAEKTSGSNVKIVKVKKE
UniProt O75787, whole entry, looked up: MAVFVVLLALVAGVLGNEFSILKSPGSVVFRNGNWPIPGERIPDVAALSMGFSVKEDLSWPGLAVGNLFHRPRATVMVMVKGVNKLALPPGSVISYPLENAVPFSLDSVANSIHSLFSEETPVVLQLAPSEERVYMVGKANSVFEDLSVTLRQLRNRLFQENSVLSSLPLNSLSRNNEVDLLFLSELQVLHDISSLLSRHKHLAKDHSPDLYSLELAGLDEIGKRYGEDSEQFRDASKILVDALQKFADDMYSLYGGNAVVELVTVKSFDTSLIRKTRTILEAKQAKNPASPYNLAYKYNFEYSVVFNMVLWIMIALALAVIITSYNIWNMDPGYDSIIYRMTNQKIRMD

Assays:
Assay in all cases: log2 fold change, soluble protein after heating vs DMSO (PISA); higher = thermal stabilisation; K562 lysate, 10 uM; active = over 0.2 and 3.5 SD of the protein, either way, in both replicates (recomputed)
[1] = compound: CS(=O)(=O)CCNCc1ccc(-c2ccc3ncnc(Nc4ccc(OCc5cccc(F)c5)c(Cl)c4)c3c2)o1 [lapatinib]
Method in brief: (§1)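 Log-two fold change in thermal stability relative to solvent controls is reported from duplicates. For each sample, crude K562 extract from dounce-homogenised pellets in PBS pH 7.4 with 1 mM MgCl2, at 1 mg/mL protein, was treated with 10 μM compound for 30 min. Aliquots heated for 3 min across 48°C-58°C were pooled, brought to 0.5% NP-40 at 4°C and cleared at 21,000xg for 90 min. The supernatant was quantified by TMTpro 16plex LC-MS/MS with channel sums equalised.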

[2] = compound: CS(=O)(=O)N1CCN(Cc2cc3nc(-c4cccc5[nH]ncc45)nc(N4CCOCC4)c3s2)CC1 [pictilisib]
Method in brief: as §1

[3] = compound: C[C@@H](Oc1cc(-c2cnn(C3CCNCC3)c2)cnc1N)c1c(Cl)ccc(F)c1Cl [crizotinib]
Method in brief: as §1

[4] = compound: C[C@H](C1=CC=C(C=C1)C(=O)NC2=C3C=CNC3=NC=C2)N
Method in brief: as §1

[5] = compound: C[C@H](Nc1ncnc2nc[nH]c12)c1cc2cccc(Cl)c2c(=O)n1-c1ccccc1 [duvelisib]
Method in brief: as §1

[6] = compound: Cc1cc(Nc2cc(CN3CCOCC3)c3nc(C)c(Cc4ccc(Cl)cc4F)n3n2)n[nH]1 [gandotinib]
Method in brief: as §1

[7] = compound: Cc1cc(Nc2cc(N3CCN(C)CC3)nc(Sc3ccc(NC(=O)C4CC4)cc3)n2)n[nH]1 [tozasertib]
Method in brief: as §1

[8] = compound: Cc1ccc(-n2nc(C(C)(C)C)cc2NC(=O)Nc2ccc(OCCN3CCOCC3)c3ccccc23)cc1 [doramapimod]
Method in brief: as §1

[9] = compound: Cc1ccc(NC(=O)c2ccc(CN3CC[C@H](N(C)C)C3)c(C(F)(F)F)c2)cc1Nc1nccc(-c2cncnc2)n1 [bafetinib]
Method in brief: as §1

[10] = compound: Cc1cccc(CC(=O)N2CCc3c2ccc(-c2cn(C)c4ncnc(N)c24)c3F)n1
Method in brief: as §1

[11] = compound: Cc1cn(-c2cc(NC(=O)c3ccc(C)c(Nc4nccc(-c5cccnc5)n4)c3)cc(C(F)(F)F)c2)cn1 [nilotinib]
Method in brief: as §1

[12] = compound: Cc1nc(Nc2n[nH]c3c2CN(C(=O)N[C@H](CN(C)C)c2ccccc2)C3(C)C)c2sccc2n1
Method in brief: as §1

[13] = compound: Cc1nc(Nc2ncc(C(=O)Nc3c(C)cccc3Cl)s2)cc(N2CCN(CCO)CC2)n1 [dasatinib]
Method in brief: as §1

[14] = compound: Cc1ncc(-c2ccnc(Nc3ccc(S(C)(=O)=O)cc3)n2)n1C(C)C
Method in brief: as §1

[15] = compound: Cn1cc(-c2ccc3c(c2)CCN3C(=O)Cc2cccc(C(F)(F)F)c2)c2c(N)ncnc21
Method in brief: as §1

[16] = compound: Cn1cc(CNCC2CCN(c3ncc(C(=O)NO)cn3)CC2)c2ccccc21 [quisinostat]
Method in brief: as §1

[17] = compound: Cn1cncc1[C@@](N)(c1ccc(Cl)cc1)c1ccc2c(c1)c(-c1cccc(Cl)c1)cc(=O)n2C [tipifarnib]
Method in brief: as §1

[18] = compound: NC(=O)Nc1cc(-c2cccc(F)c2)sc1C(=O)N[C@H]1CCCNC1
Method in brief: as §1

[19] = compound: NC(=O)c1cnc(N[C@@H]2CCCC[C@@H]2N)nc1Nc1cccc(-n2nccn2)c1
Method in brief: as §1

[20] = compound: NC1(c2ccc(-c3nc4ccn5c(=O)[nH]nc5c4cc3-c3ccccc3)cc2)CCC1
Method in brief: as §1

Measured: log2 fold change

B3GAT3 (UniProt O94766)
inactive: [1] 0.01 | [2] -0.014 | [3] -0.061 | [4] 0.011 | [5] -0.066 | [6] 0.006 | [7] 0.007 | [8] -0.021 | [9] -0.089 | [10] 0.087 | [11] 0.039 | [12] 0.068 | [13] -0.031 | [14] -0.033 | [15] -0.075 | [16] 0.015 | [17] 0.094 | [18] 0.048 | [19] 0.009 | [20] 0.017

ATP5F1D (UniProt P30049)
inactive: [1] 0.01 | [2] 0.005 | [3] 0.006 | [4] 0.054 | [5] -0.022 | [6] -0.018 | [7] 0.063 | [8] 0.044 | [9] 0.016 | [10] 0.042 | [11] 0.025 | [12] -0.015 | [13] -0.023 | [14] 0.04 | [15] 0.008 | [16] -0.085 | [17] -0.059 | [18] -0.028 | [19] -0.04 | [20] 0.034

ATOX1 (UniProt O00244)
inactive: [1] -0.005 | [2] -0.05 | [3] -0.065 | [4] 0.004 | [5] -0.005 | [6] 0.073 | [7] -0.004 | [8] -0.066 | [9] -0.117 | [10] -0.074 | [11] 0.141 | [12] 0.04 | [13] -0.015 | [14] 0.131 | [15] -0.041 | [16] -0.051 | [17] 0.168 | [18] 0.027 | [19] -0.072 | [20] 0.019

ASH2L (UniProt Q9UBL3)
inactive: [1] 0.014 | [2] -0.024 | [3] 0.006 | [4] -0.017 | [5] -0.011 | [6] -0.019 | [7] 0.003 | [8] 0.033 | [9] -0.018 | [10] 0.031 | [11] 0.009 | [12] -0.036 | [13] 0.03 | [14] -0.014 | [15] 0.015 | [16] -0.011 | [17] 0.016 | [18] -0.002 | [19] -0.002 | [20] 0.006

ATP11A (UniProt P98196)
inactive: [1] -0.118 | [2] -0.087 | [3] -0.005 | [4] -0.108 | [5] 0.081 | [6] 0.017 | [7] 0.009 | [8] -0.07 | [9] -0.05 | [10] 0.1 | [11] -0.046 | [12] -0.053 | [13] 0.018 | [14] 0.011 | [15] 0.035 | [16] 0.002 | [17] 0.019 | [18] 0.043 | [19] -0.045 | [20] -0.012

ATP5MD (UniProt Q96IX5)
inactive: [1] -0.011 | [2] 0.013 | [3] 0.089 | [4] -0.266 | [5] -0.034 | [6] 0.025 | [7] 0.034 | [8] -0.088 | [9] -0.014 | [10] 0.041 | [11] -0.016 | [12] 0.022 | [13] 0.192 | [14] 0.059 | [15] -0.029 | [16] 0.241 | [17] 0.02 | [18] -0.068 | [19] -0.007 | [20] 0.046

B3GLCT (UniProt Q6Y288)
inactive: [1] -0.016 | [2] -0.013 | [3] 0.019 | [4] -0.058 | [5] -0.059 | [6] 0.034 | [7] 0.002 | [8] 0.006 | [9] 0.043 | [10] 0.021 | [11] 0.014 | [12] -0.071 | [13] -0.002 | [14] 0.058 | [15] -0.013 | [16] -0.051 | [17] 0.125 | [18] 0.031 | [19] 0.008 | [20] 0.002

ATG3 (UniProt Q9NT62)
inactive: [1] 0.001 | [2] 0.024 | [3] -0.024 | [4] -0.039 | [5] 0.02 | [6] 0.016 | [7] 0.037 | [8] -0.012 | [9] -0.04 | [10] 0.008 | [11] -0.014 | [12] 0.024 | [13] 0.004 | [14] -0.018 | [15] 0.013 | [16] 0.068 | [17] 0.025 | [18] -0.012 | [19] 0 | [20] 0.025

ASCC3 (UniProt Q8N3C0)
inactive: [1] -0.068 | [2] -0.014 | [3] -0.111 | [4] -0.071 | [5] -0.005 | [6] 0.082 | [7] -0.009 | [8] 0.013 | [9] -0.102 | [10] 0.148 | [11] -0.007 | [12] 0.003 | [13] -0.032 | [14] -0.001 | [15] -0.008 | [16] -0.118 | [17] -0.013 | [18] 0.055 | [19] 0.006 | [20] -0.07

ATP1A4 (UniProt Q13733)
inactive: [1] -0.039 | [2] -0.007 | [3] 0.027 | [4] -0.034 | [5] 0.04 | [6] 0.022 | [7] -0.023 | [8] -0.017 | [9] 0.035 | [10] 0.028 | [11] -0.005 | [12] -0.014 | [13] -0.011 | [14] -0.008 | [15] 0.021 | [16] 0.064 | [17] 0.021 | [18] -0.036 | [19] -0.004 | [20] 0.006

ATP6V1B1 (UniProt P15313)
inactive: [1] -0.028 | [2] -0.028 | [3] -0.035 | [4] -0.232 | [5] -0.001 | [6] 0.099 | [7] 0 | [8] 0.042 | [9] -0.044 | [10] 0.129 | [11] -0.024 | [12] 0.029 | [13] 0.034 | [14] -0.045 | [15] -0.021 | [16] -0.029 | [17] -0.036 | [18] 0.01 | [19] 0.019 | [20] 0.008

ATP2B1 isoform 1 (UniProt P20020)
inactive: [1] -0.041 | [2] -0.027 | [3] -0.013 | [4] -0.053 | [5] 0.019 | [6] 0.007 | [7] 0.013 | [8] -0.005 | [9] -0.022 | [10] 0.041 | [11] -0.014 | [12] 0.041 | [13] -0.02 | [14] 0.01 | [15] -0.004 | [16] -0.003 | [17] -0.008 | [18] 0.008 | [19] 0.016 | [20] -0.013

ATP6V1F isoform 2 (UniProt Q16864)
inactive: [1] 0.08 | [2] 0.059 | [3] 0.023 | [4] 0.306 | [5] -0.034 | [6] -0.18 | [7] 0.083 | [8] 0.024 | [9] -0.126 | [10] -0.169 | [11] 0.016 | [12] 0.029 | [13] 0 | [14] 0.25 | [15] 0.054 | [16] -0.066 | [17] 0.023 | [18] -0.018 | [19] -0.061 | [20] 0.004

ATP5F1E (UniProt P56381)
inactive: [1] 0.019 | [2] 0.065 | [3] 0.039 | [4] 0.013 | [5] 0.02 | [6] 0.006 | [7] 0.025 | [8] 0.131 | [9] 0.063 | [10] 0.023 | [11] -0.037 | [12] 0.075 | [13] 0.047 | [14] 0.061 | [15] 0.027 | [16] -0.033 | [17] -0.057 | [18] -0.053 | [19] 0.032 | [20] -0.028

ATXN2 (UniProt Q99700)
inactive: [1] 0.006 | [2] -0.042 | [3] 0.028 | [4] 0.019 | [5] 0.025 | [6] 0.001 | [7] 0.011 | [8] 0.017 | [9] -0.012 | [10] -0.006 | [11] -0.04 | [12] 0.023 | [13] 0.023 | [14] -0.003 | [15] 0.047 | [16] -0.065 | [17] 0.014 | [18] 0.045 | [19] 0.011 | [20] -0.028

Looked up one by one from above (2):
ATP6V1B1 (UniProt P15313)
inactive: [1] -0.028 | [2] -0.028 | [3] -0.035 | [4] -0.232 | [5] -0.001 | [6] 0.099 | [7] 0 | [8] 0.042 | [9] -0.044 | [10] 0.129 | [11] -0.024 | [12] 0.029 | [13] 0.034 | [14] -0.045 | [15] -0.021 | [16] -0.029 | [17] -0.036 | [18] 0.01 | [19] 0.019 | [20] 0.008

ATP6V1F isoform 2 (UniProt Q16864)
inactive: [1] 0.08 | [2] 0.059 | [3] 0.023 | [4] 0.306 | [5] -0.034 | [6] -0.18 | [7] 0.083 | [8] 0.024 | [9] -0.126 | [10] -0.169 | [11] 0.016 | [12] 0.029 | [13] 0 | [14] 0.25 | [15] 0.054 | [16] -0.066 | [17] 0.023 | [18] -0.018 | [19] -0.061 | [20] 0.004

The listing continues.

ATP6AP2 (UniProt O75787)
inactive: [1] 0.029 | [2] -0.044 | [3] -0.003 | [4] 0.019 | [5] 0.001 | [6] -0.112 | [7] -0.005 | [8] 0.01 | [9] -0.003 | [10] -0.064 | [11] -0.014 | [12] -0.011 | [13] 0.008 | [14] -0.018 | [15] 0.004 | [16] 0.012 | [17] -0.03 | [18] -0.016 | [19] -0.017 | [20] 0.011
